Laboratory results taken from publication PMC2672614.
Results are given in words; binding and its absence hold for the method and conditions named. Binding seen in cells or lysates may run through a third protein. A yes stands for co-enrichment or nearness to the bait. Other partners may have been found. For part of these data: Sequences can lack the tags named with a protein. Each block holds one molecule with its values, some of them ahead of it.

Chains of the proteins cited; added tags and fusions are not shown. Lines headed by an entry give the natural chain unless they say otherwise; changes in a name come on top.
UniProt P21513: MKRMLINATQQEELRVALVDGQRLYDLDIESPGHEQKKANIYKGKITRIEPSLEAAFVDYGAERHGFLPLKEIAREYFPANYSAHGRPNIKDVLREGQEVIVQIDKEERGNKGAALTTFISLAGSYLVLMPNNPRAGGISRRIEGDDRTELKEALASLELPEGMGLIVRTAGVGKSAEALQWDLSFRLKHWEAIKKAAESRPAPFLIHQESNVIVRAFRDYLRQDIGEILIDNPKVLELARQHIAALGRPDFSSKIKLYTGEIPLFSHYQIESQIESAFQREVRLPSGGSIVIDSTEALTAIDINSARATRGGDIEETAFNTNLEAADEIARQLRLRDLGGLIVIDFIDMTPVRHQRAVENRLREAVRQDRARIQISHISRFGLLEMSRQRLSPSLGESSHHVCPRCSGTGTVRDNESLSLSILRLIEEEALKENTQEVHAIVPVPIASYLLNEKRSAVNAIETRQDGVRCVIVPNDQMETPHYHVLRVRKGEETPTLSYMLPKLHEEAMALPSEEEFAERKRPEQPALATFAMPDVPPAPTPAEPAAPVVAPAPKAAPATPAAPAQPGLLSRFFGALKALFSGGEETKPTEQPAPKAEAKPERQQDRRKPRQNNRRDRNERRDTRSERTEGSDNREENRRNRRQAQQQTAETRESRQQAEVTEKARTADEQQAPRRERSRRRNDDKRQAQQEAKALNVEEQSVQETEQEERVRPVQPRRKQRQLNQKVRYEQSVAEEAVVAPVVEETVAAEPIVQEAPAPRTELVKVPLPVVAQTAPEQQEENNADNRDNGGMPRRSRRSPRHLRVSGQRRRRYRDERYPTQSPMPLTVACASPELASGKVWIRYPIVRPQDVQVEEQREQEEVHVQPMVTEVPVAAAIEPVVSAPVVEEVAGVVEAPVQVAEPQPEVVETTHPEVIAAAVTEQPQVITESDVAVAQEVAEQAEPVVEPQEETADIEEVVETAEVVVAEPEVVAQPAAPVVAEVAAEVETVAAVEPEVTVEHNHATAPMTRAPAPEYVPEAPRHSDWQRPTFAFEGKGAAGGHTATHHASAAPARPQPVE
UniProt P36979: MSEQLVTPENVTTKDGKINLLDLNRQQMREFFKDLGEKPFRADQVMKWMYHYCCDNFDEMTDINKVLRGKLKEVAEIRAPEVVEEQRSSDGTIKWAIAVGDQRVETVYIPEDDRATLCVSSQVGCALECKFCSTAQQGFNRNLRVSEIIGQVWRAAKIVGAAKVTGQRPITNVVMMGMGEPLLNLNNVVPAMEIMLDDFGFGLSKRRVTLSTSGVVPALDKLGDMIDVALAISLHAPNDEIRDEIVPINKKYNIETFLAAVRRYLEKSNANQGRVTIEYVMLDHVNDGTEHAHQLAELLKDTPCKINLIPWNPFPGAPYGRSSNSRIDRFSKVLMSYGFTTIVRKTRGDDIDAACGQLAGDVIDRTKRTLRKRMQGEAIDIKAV
UniProt P0CE47: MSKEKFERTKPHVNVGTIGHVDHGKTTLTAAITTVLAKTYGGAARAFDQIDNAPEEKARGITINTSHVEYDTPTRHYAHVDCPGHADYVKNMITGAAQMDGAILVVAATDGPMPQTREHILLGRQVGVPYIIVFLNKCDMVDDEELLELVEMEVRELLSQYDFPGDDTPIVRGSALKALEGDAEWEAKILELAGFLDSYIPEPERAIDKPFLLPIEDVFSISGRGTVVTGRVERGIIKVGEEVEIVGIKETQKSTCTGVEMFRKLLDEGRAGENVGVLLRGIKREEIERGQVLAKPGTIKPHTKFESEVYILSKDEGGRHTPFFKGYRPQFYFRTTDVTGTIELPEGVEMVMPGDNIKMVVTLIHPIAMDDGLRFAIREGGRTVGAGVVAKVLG

Assays:
Assay in all cases: affinity purification with mass spectrometry; chromosomal C-terminal SPA tag (three FLAG sequences and a calmodulin-binding peptide separated by a protease cleavage site) on the bait in E. coli DY330 (W3110 background); tandem-affinity purification of endogenous complexes under standard culture conditions; copurifying proteins detected by LCMS and MALDI; pairs filtered at confidence >=0.75
[1] = molecular target: T1, YbcJ (E. coli K-12 W3110 (endogenous in DY330)) (UniProt P0AAS7)
T1 sequence: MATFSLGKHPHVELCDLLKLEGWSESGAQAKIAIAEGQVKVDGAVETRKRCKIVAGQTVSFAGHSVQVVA

[2] = molecular target: T2, YncE (E. coli K-12 W3110 (endogenous in DY330)) (UniProt P76116)
T2 sequence: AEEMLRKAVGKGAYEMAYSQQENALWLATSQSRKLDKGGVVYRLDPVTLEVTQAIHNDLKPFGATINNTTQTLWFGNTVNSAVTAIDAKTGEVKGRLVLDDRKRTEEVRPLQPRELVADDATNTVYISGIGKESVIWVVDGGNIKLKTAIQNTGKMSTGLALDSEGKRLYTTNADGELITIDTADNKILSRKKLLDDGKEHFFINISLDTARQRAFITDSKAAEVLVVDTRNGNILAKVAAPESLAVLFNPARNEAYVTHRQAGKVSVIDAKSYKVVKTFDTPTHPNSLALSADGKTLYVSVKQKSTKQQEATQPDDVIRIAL

[3] = molecular target: T3, YdhQ (E. coli K-12 W3110 (endogenous in DY330)) (UniProt P77552)
T3 sequence: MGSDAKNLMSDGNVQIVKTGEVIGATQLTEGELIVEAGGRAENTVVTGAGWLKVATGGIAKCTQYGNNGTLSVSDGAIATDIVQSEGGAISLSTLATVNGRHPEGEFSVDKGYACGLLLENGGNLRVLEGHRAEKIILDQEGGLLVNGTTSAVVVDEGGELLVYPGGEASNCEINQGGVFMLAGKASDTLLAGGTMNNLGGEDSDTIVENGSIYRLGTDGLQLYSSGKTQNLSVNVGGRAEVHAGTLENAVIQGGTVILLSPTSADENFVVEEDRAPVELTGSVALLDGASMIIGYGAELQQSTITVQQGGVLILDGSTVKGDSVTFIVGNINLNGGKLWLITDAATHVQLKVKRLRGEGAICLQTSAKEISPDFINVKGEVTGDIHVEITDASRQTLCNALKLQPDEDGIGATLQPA

[4] = molecular target: T4, YibL (E. coli K-12 W3110 (endogenous in DY330)) (UniProt P0ADK8)
T4 sequence: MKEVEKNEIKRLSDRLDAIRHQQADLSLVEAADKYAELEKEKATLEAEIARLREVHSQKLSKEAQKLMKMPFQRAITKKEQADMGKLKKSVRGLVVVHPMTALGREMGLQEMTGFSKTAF

[5] = molecular target: T5, YjcF (E. coli K-12 W3110 (endogenous in DY330)) (UniProt P32704)
T5 sequence: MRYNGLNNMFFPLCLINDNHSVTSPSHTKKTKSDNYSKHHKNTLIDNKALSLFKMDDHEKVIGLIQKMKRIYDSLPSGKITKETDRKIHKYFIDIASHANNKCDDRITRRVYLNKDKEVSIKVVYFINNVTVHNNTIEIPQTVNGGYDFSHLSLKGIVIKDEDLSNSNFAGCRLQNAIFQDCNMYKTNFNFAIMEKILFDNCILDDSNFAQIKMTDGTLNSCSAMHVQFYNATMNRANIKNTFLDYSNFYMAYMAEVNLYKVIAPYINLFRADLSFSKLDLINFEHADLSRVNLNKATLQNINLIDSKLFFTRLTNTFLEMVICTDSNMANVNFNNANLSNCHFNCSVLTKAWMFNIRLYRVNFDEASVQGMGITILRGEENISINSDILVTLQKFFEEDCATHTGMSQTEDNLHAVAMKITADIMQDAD

Molecule: exoribonuclease E (Rne) (from UniProt P21513 1-1061) (enzyme)
binding [1]: binds
binding [2]: binds

Molecule: YfgB (from UniProt P36979 1-384)
binding [4]: binds

B1: YbeB (protein, UniProt P0AAT6 1-105)
chain: MQGKALQDFVIDKIDDLKGQDIIALDVQGKSSITDCMIICTGTSSRHVMSIADHVVQESRAAGLLPLGVEGENSADWIVVDLGDVIVHVMQEESRRLYELEKLWS
binding [5]: binds

B3: RNA pseudouridine synthetase RluC (enzyme, UniProt P0AA39 1-319)
chain: MKTETPSVKIVAITADEAGQRIDNFLRTQLKGVPKSMIYRILRKGEVRVNKKRIKPEYKLEAGDEVRIPPVRVAEREEEAVSPHLQKVAALADVILYEDDHILVLNKPSGTAVHGGSGLSFGVIEGLRALRPEARFLELVHRLDRDTSGVLLVAKKRSALRSLHEQLREKGMQKDYLALVRGQWQSHVKSVQAPLLKNILQSGERIVRVSQEGKPSETRFKVEERYAFATLVRCSPVTGRTHQIRVHTQYAGHPIAFDDRYGDREFDRQLTEAGTGLNRLFLHAAALKFTHPGTGEVMRIEAPMDEGLKRCLQKLRNAR
binding [4]: binds

B4: RppH (formerly NudH) (enzyme, UniProt P0A776 1-176)
chain: MIDDDGYRPNVGIVICNRQGQVMWARRFGQHSWQFPQGGINPGESAEQAMYRELFEEVGLSRKDVRILASTRNWLRYKLPKRLVRWDTKPVCIGQKQKWFLLQLVSGDAEINMQTSSTPEFDGWRWVSYWYPVRQVVSFKRDVYRRVMKEFASVVMSLQENTPKPQNASAYRRKRG
binding [4]: binds

B5: YbcJ (protein, UniProt P0AAS7 1-70)
chain: T1 sequence
binding [4]: binds

B6: RNA helicase SrmB (enzyme, UniProt P21507 1-444)
chain: MTVTTFSELELDESLLEALQDKGFTRPTAIQAAAIPPALDGRDVLGSAPTGTGKTAAYLLPALQHLLDFPRKKSGPPRILILTPTRELAMQVSDHARELAKHTHLDIATITGGVAYMNHAEVFSENQDIVVATTGRLLQYIKEENFDCRAVETLILDEADRMLDMGFAQDIEHIAGETRWRKQTLLFSATLEGDAIQDFAERLLEDPVEVSANPSTRERKKIHQWYYRADDLEHKTALLVHLLKQPEATRSIVFVRKRERVHELANWLREAGINNCYLEGEMVQGKRNEAIKRLTEGRVNVLVATDVAARGIDIPDVSHVFNFDMPRSGDTYLHRIGRTARAGRKGTAISLVEAHDHLLLGKVGRYIEEPIKARVIDELRPKTRAPSEKQTGKPSKKVLAKRAEKKKAKEKEKPRVKKRHRDTKNIGKRRKPSGTGVPPQTTEE
binding [2]: binds

B7: RNA helicase DeaD (enzyme, UniProt P0A9P6 1-629)
chain: MAEFETTFADLGLKAPILEALNDLGYEKPSPIQAECIPHLLNGRDVLGMAQTGSGKTAAFSLPLLQNLDPELKAPQILVLAPTRELAVQVAEAMTDFSKHMRGVNVVALYGGQRYDVQLRALRQGPQIVVGTPGRLLDHLKRGTLDLSKLSGLVLDEADEMLRMGFIEDVETIMAQIPEGHQTALFSATMPEAIRRITRRFMKEPQEVRIQSSVTTRPDISQSYWTVWGMRKNEALVRFLEAEDFDAAIIFVRTKNATLEVAEALERNGYNSAALNGDMNQALREQTLERLKDGRLDILIATDVAARGLDVERISLVVNYDIPMDSESYVHRIGRTGRAGRAGRALLFVENRERRLLRNIERTMKLTIPEVELPNAELLGKRRLEKFAAKVQQQLESSDLDQYRALLSKIQPTAEGEELDLETLAAALLKMAQGERTLIVPPDAPMRPKREFRDRDDRGPRDRNDRGPRGDREDRPRRERRDVGDMQLYRIEVGRDDGVEVRHIVGAIANEGDISSRYIGNIKLFASHSTIELPKGMPGEVLQHFTRTRILNKPMNMQLLGDAQPHTGGERRGGGRGFGGERREGGRNFSGERREGGRGDGRRFSGERREGRAPRRDDSTGRRRFGGDA
binding [1]: binds
binding [2]: binds
binding [4]: binds

Now from value to molecule:

binding [3]: binds
Molecule: translation elongation factor Tu (from UniProt P0CE47)

binding [1]: binds
binding [2]: binds
B2: exoribonuclease R (Rnr) (enzyme, UniProt P21499 1-813)
chain: MSQDPFQEREAEKYANPIPSREFILEHLTKREKPASRDELAVELHIEGEEQLEGLRRRLRAMERDGQLVFTRRQCYALPERLDLVKGTVIGHRDGYGFLRVEGRKDDLYLSSEQMKTCIHGDQVLAQPLGADRKGRREARIVRVLVPKTSQIVGRYFTEAGVGFVVPDDSRLSFDILIPPDQIMGARMGFVVVVELTQRPTRRTKAVGKIVEVLGDNMGTGMAVDIALRTHEIPYIWPQAVEQQVAGLKEEVPEEAKAGRVDLRDLPLVTIDGEDARDFDDAVYCEKKRGGGWRLWVAIADVSYYVRPSTPLDREARNRGTSVYFPSQVIPMLPEVLSNGLCSLNPQVDRLCMVCEMTVSSKGRLTGYKFYEAVMSSHARLTYTKVWHILQGDQDLREQYAPLVKHLEELHNLYKVLDKAREERGGISFESEEAKFIFNAERRIERIEQTQRNDAHKLIEECMILANISAARFVEKAKEPALFRIHDKPSTEAITSFRSVLAELGLELPGGNKPEPRDYAELLESVADRPDAEMLQTMLLRSMKQAIYDPENRGHFGLALQSYAHFTSPIRRYPDLTLHRAIKYLLAKEQGHQGNTTETGGYHYSMEEMLQLGQHCSMAERRADEATRDVADWLKCDFMLDQVGNVFKGVISSVTGFGFFVRLDDLFIDGLVHVSSLDNDYYRFDQVGQRLMGESSGQTYRLGDRVEVRVEAVNMDERKIDFSLISSERAPRNVGKTAREKAKKGDAGKKGGKRRQVGKKVNFEPDSAFRGEKKTKPKAAKKDARKAKKPSAKTQKIAAATKAKRAAKKKVAE

binding [5]: binds
B8: ribosomal release factor 2 (protein, UniProt P07012 1-365)
chain: MFEINPVNNRIQDLTERSDVLRGYLDYDAKKERLEEVNAELEQPDVWNEPERAQALGKERSSLEAVVDTLDQMKQGLEDVSGLLELAVEADDEETFNEAVAELDALEEKLAQLEFRRMFSGEYDSADCYLDIQAGSGGTEAQDWASMLERMYLRWAESRGFKTEIIEESEGEVAGIKSVTIKISGDYAYGWLRTETGVHRLVRKSPFDSGGRRHTSFSSAFVYPEVDDDIDIEINPADLRIDVYRTSGAGGQHVNRTESAVRITHIPTGIVTQCQNDRSQHKNKDQAMKQMKAKLYELEMQKKNAEKQAMEDNKSDIGWGSQIRSYVLDDSRIKDLRTGVETRNTQAVLDGSLDQFIEASLKAGL

binding [1]: binds
binding [2]: binds
binding [4]: binds
B9: pseudouridylate synthase RluB (enzyme, UniProt P37765 1-291)
chain: MSEKLQKVLARAGHGSRREIESIIEAGRVSVDGKIAKLGDRVEVTPGLKIRIDGHLISVRESAEQICRVLAYYKPEGELCTRNDPEGRPTVFDRLPKLRGARWIAVGRLDVNTCGLLLFTTDGELANRLMHPSREVEREYAVRVFGQVDDAKLRDLSRGVQLEDGPAAFKTIKFSGGEGINQWYNVTLTEGRNREVRRLWEAVGVQVSRLIRVRYGDIPLPKGLPRGGWTELDLAQTNYLRELVELPPETSSKVAVEKDRRRMKANQIRRAVKRHSQVSGGRRSGGRNNNG
